This is an account of results in US20220227887A1 (ONO PHARMACEUTICAL, published 2022).

Chains of the proteins cited; added tags and fusions are not shown. Lines headed by an entry give the natural chain unless they say otherwise; changes in a name come on top.
UniProt P22646: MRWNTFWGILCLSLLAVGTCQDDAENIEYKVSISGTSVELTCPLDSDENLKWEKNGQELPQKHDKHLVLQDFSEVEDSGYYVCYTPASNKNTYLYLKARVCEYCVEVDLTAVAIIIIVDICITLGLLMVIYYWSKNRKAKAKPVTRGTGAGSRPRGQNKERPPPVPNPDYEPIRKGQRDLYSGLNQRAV

These are yes or no findings as the source states them, for the method shown. Some entries that bind do so weakly or less than the wild type.

This experiment addresses mouse CD3 epsilon on DO11.10 cells (mouse) (UniProt P22646). Description: cell staining with culture supernatant, DO11.10 cells.

B1: bispecific molecule TKB58x2C11 (bispecific antibody)
chain: DAAQPARVQLQQSGAELVRPGALVKLSCKASGFNIKDYYMHWVKQRPEQGLEWIGWIDPENGNTIYDPKFQDKASLTADTSSNTAYLQLSSLTSEDTAVYYCAPERGYDYAMDYWGQGTSVTVSSGGGGSDIQMTQSPSSLPASLGDRVTINCQASQDISNYLNWYQQKPGKAPKLLIYYTNKLADGVPSRFSGSGSGRDSSFTISSLESEDIGSYYCQQYYNYPWTFGPGTKLEIKGGGGSGGGGSGGGGSEVQLVESGGGLVQPGKSLKLSCEASGFTFSGYGMHWVRQAPGRGLESVAYITSSSINIKYADAVKGRFTVSRDNAKNLLFLQMNILKSEDTAMYYCARFDWDKNYWGQGTMVTVSSGGGGSIVLTQSPATLSVTPGDSVSLSCRASQSISNNLHWYQQKSHESPRLLIKYASQSISGIPSRFSGSGSGTDFTLSINSVETEDFGMYFCQQSNSWPQYTFGGGTKLEIKGGGGSDYKDDDDKNSAVDHHHHHH
As for B1, the binding entry is listed as “binds”.
